PubChem BioAssay AID1224826, NIAID, 2016

Test: 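Genes that change LPS-induced Tnf promoter activity in mouse macrophages when knocked down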 (primary screen)
Cell system: RAW264.7 G9 macrophages from mouse bearing reporters for p65 (GFP) and the Tnf promoter (mCherry)
Knock-down reagent: siRNA pool against mouse genes, 100 nM
Timing: 16 h of LPS stimulation, after 2 days of siRNA transfection
Challenge: bacterial lipopolysaccharide (Salmonella minnesota R595), 10 ng/ml
Measurement: 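Nuclear mCherry signal of the Tnf promoter reporter measured by imaging after background removal, scaled to each plate median and turned into robust z-scores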
Reading the numbers: Tnf reporter robust z-score: higher = stronger Tnf promoter reporter signal after LPS
Hit rule: 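Called active when robust z-score is at most -1.3, matching the median of the Tlr4 knock-down control, or over 3; control wells and wells with under 50 cells never active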
Meaning of the calls: active = Tnf reporter clearly lowered or raised; inactive = no clear change in Tnf reporter
This is a random part of about 17,000 reagents tested. Of all reagents, about 1,110 (6.6%) got an active call. 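Active means lowered or raised reporter signal; replicate intensities are raw and not normalised per plate.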 Not all columns of the deposit are shown.

What did the screen give for Wsb1?
Tnf reporter robust z-score: 1.08; fewer than 50 cells in well: enough cells in well; activity call: inactive

For Bnip2, what does the deposit list?
Tnf reporter robust z-score: 0.99; fewer than 50 cells in well: enough cells in well; activity call: inactive

Which result is listed for D830014E11Rik?
Tnf reporter robust z-score: 1.37; fewer than 50 cells in well: enough cells in well; activity call: inactive

With Sh3tc2, how do the results read?
Tnf reporter robust z-score: -1.14; fewer than 50 cells in well: enough cells in well; activity call: inactive

What did the screen give for Gsap?
Tnf reporter robust z-score: 0.73; fewer than 50 cells in well: enough cells in well; activity call: inactive

What did the screen give for Angptl4?
Tnf reporter robust z-score: -0.06; fewer than 50 cells in well: enough cells in well; activity call: inactive

An excerpt from above, reduced to “Tnf reporter robust z-score”:
D830014E11Rik: 1.37
Sh3tc2: -1.14

Further results follow.
With Pdzrn3, what does the deposit list?
Tnf reporter robust z-score: -1.67; fewer than 50 cells in well: enough cells in well; activity call: active

For Sfrp5, what does the deposit list?
Tnf reporter robust z-score: 0.32; fewer than 50 cells in well: enough cells in well; activity call: inactive

With 4930432E11Rik, how do the results read?
Tnf reporter robust z-score: 0.11; fewer than 50 cells in well: enough cells in well; activity call: inactive

With Wrn, what was measured?
Tnf reporter robust z-score: -0.71; fewer than 50 cells in well: enough cells in well; activity call: inactive

What is on record for Tmem208?
Tnf reporter robust z-score: 0.06; fewer than 50 cells in well: enough cells in well; activity call: inactive

For Cd164, how do the results read?
Tnf reporter robust z-score: -0.81; fewer than 50 cells in well: enough cells in well; activity call: inactive
